According to article doi:10.1101/2021.02.20.432055:
These are yes or no findings as the source states them, for the method shown. In cells and extracts the contact can be indirect. Some entries that bind do so weakly or less than the wild type. Tags and fused reporters may be left off the sequences shown.

The chains behind the UniProt entries cited, without tags or fusion partners.
UniProt Q8TD26: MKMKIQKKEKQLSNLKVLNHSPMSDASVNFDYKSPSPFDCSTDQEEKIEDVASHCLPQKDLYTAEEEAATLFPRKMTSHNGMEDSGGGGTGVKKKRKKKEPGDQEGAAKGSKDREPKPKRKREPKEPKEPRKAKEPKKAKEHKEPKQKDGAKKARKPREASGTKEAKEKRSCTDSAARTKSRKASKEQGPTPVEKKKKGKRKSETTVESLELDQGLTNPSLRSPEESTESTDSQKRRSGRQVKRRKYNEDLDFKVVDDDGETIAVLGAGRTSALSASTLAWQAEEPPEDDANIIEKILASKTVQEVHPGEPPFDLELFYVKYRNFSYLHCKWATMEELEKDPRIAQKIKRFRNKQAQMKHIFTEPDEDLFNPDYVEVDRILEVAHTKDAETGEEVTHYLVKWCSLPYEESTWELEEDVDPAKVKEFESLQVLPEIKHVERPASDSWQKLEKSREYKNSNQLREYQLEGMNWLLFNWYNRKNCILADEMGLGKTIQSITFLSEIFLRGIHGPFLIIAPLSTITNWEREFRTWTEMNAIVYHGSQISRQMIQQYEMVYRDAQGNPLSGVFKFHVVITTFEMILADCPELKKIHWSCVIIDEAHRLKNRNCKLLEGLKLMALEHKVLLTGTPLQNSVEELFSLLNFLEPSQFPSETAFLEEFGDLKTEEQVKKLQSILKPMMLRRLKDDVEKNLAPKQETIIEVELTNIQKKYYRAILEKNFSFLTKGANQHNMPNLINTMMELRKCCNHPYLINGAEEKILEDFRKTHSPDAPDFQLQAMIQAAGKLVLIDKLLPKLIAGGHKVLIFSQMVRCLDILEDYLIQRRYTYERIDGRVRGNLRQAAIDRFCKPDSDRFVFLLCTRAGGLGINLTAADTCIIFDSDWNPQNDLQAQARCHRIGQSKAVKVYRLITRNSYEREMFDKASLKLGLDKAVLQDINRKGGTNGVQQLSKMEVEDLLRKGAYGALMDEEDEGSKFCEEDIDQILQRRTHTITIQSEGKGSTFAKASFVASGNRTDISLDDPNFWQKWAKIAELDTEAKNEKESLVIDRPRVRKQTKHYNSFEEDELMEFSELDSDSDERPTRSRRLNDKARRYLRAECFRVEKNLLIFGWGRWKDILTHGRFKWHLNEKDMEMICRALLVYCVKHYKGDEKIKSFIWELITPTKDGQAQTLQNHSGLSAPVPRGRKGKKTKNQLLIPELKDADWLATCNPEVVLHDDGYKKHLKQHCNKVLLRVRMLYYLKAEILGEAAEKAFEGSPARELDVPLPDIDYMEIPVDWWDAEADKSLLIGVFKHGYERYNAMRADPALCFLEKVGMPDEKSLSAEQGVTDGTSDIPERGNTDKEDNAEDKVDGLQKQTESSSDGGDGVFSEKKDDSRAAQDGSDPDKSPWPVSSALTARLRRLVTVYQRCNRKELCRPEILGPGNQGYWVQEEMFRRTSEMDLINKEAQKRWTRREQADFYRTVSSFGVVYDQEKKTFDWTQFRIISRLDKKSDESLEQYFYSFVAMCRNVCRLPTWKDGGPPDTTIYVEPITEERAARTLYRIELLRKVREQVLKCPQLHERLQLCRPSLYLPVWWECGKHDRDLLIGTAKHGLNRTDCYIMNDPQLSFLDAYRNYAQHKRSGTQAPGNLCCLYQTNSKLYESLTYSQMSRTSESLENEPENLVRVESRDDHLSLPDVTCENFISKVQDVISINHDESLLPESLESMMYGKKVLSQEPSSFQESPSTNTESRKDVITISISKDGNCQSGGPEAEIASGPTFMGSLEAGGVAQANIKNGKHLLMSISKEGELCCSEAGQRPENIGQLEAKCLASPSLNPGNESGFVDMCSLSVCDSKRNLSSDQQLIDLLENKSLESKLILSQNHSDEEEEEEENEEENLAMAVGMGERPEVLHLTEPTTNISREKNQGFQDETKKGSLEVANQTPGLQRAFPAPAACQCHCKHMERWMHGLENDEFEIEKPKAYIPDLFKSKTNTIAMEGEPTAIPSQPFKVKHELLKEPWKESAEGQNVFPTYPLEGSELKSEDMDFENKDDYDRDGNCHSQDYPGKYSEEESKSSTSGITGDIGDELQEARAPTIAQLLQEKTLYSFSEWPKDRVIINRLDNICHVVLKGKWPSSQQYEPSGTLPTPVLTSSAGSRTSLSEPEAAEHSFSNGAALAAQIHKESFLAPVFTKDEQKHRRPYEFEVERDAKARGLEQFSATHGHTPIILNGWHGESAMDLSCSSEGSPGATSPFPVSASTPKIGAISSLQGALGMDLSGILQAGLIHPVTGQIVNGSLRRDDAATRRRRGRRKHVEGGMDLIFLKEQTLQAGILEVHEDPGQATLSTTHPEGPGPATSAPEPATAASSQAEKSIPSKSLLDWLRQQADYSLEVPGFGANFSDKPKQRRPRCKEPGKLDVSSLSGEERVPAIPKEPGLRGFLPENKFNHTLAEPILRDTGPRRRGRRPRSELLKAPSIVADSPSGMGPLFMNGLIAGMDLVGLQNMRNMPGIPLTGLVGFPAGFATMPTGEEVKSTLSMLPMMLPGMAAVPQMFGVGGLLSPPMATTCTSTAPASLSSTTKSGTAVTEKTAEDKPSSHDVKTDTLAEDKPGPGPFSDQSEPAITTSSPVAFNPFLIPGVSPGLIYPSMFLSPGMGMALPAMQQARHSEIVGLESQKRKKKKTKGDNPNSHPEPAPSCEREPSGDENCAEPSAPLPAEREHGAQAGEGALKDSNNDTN

T1: SA1 (Stromalin Antigen 1, STAG1) (human (endogenous in HCT116)) (UniProt Q8WVM7)
T1 sequence: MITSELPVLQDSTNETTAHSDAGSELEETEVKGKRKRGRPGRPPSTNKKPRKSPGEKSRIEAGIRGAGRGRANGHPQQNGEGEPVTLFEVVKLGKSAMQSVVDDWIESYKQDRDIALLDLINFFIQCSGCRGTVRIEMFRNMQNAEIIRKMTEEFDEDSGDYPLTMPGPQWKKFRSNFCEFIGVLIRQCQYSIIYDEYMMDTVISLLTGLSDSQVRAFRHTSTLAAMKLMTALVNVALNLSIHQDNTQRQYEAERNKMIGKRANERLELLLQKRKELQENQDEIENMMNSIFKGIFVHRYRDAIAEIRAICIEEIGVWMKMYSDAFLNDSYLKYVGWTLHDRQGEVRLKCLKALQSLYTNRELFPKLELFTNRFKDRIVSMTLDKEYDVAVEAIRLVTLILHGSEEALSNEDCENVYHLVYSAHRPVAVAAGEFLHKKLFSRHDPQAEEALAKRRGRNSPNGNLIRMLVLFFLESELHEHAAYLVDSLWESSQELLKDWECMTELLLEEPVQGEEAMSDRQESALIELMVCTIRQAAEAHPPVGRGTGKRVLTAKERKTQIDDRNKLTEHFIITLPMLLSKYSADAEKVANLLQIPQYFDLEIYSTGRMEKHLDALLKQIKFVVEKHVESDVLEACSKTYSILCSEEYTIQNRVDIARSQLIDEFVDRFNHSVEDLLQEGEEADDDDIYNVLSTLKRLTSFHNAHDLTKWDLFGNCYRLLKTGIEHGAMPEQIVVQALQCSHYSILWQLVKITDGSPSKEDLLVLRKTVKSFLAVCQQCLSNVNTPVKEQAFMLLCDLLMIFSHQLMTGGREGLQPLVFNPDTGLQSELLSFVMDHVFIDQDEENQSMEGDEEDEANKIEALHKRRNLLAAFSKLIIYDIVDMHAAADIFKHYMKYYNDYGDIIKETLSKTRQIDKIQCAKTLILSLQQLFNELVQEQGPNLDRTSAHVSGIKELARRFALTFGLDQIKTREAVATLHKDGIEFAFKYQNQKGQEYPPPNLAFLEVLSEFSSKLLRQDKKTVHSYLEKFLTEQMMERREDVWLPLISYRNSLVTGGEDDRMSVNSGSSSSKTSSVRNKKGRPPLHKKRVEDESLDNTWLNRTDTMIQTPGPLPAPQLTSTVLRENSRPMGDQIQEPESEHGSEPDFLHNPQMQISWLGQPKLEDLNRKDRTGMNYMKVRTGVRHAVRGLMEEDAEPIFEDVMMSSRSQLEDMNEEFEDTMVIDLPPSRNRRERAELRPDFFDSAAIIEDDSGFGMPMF

T2: SA2 (Stromalin Antigen 2, STAG2) (human (endogenous in HCT116)) (UniProt Q8N3U4)
T2 sequence: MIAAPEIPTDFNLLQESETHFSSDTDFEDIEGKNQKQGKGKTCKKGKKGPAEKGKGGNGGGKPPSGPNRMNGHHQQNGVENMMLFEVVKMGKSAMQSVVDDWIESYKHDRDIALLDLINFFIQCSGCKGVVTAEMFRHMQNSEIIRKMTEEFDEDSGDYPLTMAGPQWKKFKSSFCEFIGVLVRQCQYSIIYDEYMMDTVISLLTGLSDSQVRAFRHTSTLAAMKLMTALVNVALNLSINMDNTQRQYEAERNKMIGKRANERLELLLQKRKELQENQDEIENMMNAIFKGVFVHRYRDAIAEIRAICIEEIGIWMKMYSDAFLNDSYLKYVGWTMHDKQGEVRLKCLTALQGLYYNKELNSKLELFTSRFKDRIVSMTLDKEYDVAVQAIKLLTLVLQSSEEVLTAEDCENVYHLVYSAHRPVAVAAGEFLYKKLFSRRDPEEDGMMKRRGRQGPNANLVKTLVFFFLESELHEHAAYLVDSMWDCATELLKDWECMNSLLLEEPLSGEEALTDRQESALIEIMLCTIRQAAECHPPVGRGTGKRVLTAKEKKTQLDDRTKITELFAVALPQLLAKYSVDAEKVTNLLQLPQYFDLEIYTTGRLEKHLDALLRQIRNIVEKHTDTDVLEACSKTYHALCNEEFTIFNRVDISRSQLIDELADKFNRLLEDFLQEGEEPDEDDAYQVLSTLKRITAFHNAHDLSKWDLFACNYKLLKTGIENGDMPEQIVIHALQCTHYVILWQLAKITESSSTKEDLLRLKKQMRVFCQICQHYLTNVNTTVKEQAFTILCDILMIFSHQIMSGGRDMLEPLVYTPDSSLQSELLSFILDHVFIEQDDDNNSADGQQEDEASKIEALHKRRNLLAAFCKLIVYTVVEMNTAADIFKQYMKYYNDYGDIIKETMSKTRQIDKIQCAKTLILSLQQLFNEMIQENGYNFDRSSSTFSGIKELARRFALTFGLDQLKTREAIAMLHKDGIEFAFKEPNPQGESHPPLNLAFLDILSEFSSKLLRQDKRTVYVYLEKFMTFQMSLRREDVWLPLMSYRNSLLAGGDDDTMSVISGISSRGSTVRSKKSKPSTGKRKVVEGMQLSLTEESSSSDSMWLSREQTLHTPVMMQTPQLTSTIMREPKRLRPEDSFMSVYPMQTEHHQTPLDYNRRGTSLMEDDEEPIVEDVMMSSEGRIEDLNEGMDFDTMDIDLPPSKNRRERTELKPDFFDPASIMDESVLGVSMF


How the values were obtained:
[1] = biological target: T1, SA1 (Stromalin Antigen 1, STAG1) (human (endogenous in HCT116)); assay: co-IP
[2] = biological target: T2, SA2 (Stromalin Antigen 2, STAG2) (human (endogenous in HCT116)); assay: co-IP

binding [1] | binding [2] | Molecule
binds | binds weakly | MCM3 (protein, UniProt P25205 1-808) MAGTVVLDDVELREAQRDYLDFLDDEEDQGIYQSKVRELISDNQYRLIVNVNDLRRKNEKRANRLLNNAFEELVAFQRALKDFVASIDATYAKQYEEFYVGLEGSFGSKHVSPRTLTSCFLSCVVCVEGIVTKCSLVRPKVVRSVHYCPATKKTIERRYSDLTTLVAFPSSSVYPTKDEENNPLETEYGLSVYKDHQTITIQEMPEKAPAGQLPRSVDVILDDDLVDKAKPGDRVQVVGTYRCLPGKKGGYTSGTFRTVLIACNVKQMSKDAQPSFSAEDIAKIKKFSKTRSKDIFDQLAKSLAPSIHGHDYVKKAILCLLLGGVERDLENGSHIRGDINILLIGDPSVAKSQLLRYVLCTAPRAIPTTGRGSSGVGLTAAVTTDQETGERRLEAGAMVLADRGVVCIDEFDKMSDMDRTAIHEVMEQGRVTIAKAGIHARLNARCSVLAAANPVYGRYDQYKTPMENIGLQDSLLSRFDLLFIMLDQMDPEQDREISDHVLRMHRYRAPGEQDGDAMPLGSAVDILATDDPNFSQEDQQDTQIYEKHDNLLHGTKKKKEKMVSAAFMKKYIHVAKIIKPVLTQESATYIAEEYSRLRSQDSMSSDTARTSPVTARTLETLIRLATAHAKARMSKTVDLQDAEEAVELVQYAYFKKVLEKEKKRKKRSEDESETEDEEEKSQEDQEQKRKRRKTRQPDAKDGDSYDPYDFSDTEEEMPQVHTPKTADSQETKESQKVELSESRLKAFKVALLDVFREAHAQSIGMNRLTESINRDSEEPFSSVEIQAALSKMQDDNQVMVSEGIIFLI
binds | – | ESYT2 (protein, UniProt A0FGR8 1-921) MTANRDAALSSHRHPGCAQRPRTPTFASSSQRRSAFGFDDGNFPGLGERSHAPGSRLGARRRAKTARGLRGHRQRGAGAGLSRPGSARAPSPPRPGGPENPGGVLSVELPGLLAQLARSFALLLPVYALGYLGLSFSWVLLALALLAWCRRSRGLKALRLCRALALLEDEERVVRLGVRACDLPAWVHFPDTERAEWLNKTVKHMWPFICQFIEKLFRETIEPAVRGANTHLSTFSFTKVDVGQQPLRINGVKVYTENVDKRQIILDLQISFVGNCEIDLEIKRYFCRAGVKSIQIHGTMRVILEPLIGDMPLVGALSIFFLRKPLLEINWTGLTNLLDVPGLNGLSDTIILDIISNYLVLPNRITVPLVSEVQIAQLRFPVPKGVLRIHFIEAQDLQGKDTYLKGLVKGKSDPYGIIRVGNQIFQSRVIKENLSPKWNEVYEALVYEHPGQELEIELFDEDPDKDDFLGSLMIDLIEVEKERLLDEWFTLDEVPKGKLHLRLEWLTLMPNASNLDKVLTDIKADKDQANDGLSSALLILYLDSARNLPSGKKISSNPNPVVQMSVGHKAQESKIRYKTNEPVWEENFTFFIHNPKRQDLEVEVRDEQHQCSLGNLKVPLSQLLTSEDMTVSQRFQLSNSGPNSTIKMKIALRVLHLEKRERPPDHQHSAQVKRPSVSKEGRKTSIKSHMSGSPGPGGSNTAPSTPVIGGSDKPGMEEKAQPPEAGPQGLHDLGRSSSSLLASPGHISVKEPTPSIASDISLPIATQELRQRLRQLENGTTLGQSPLGQIQLTIRHSSQRNKLIVVVHACRNLIAFSEDGSDPYVRMYLLPDKRRSGRRKTHVSKKTLNPVFDQSFDFSVSLPEVQRRTLDVAVKNSGGFLSKDKGLLGKVLVALASEELAKGWTQWYDLTEDGTRPQAMT
– | binds | CTCF (protein, UniProt P49711 1-727) MEGDAVEAIVEESETFIKGKERKTYQRRREGGQEEDACHLPQNQTDGGEVVQDVNSSVQMVMMEQLDPTLLQMKTEVMEGTVAPEAEAAVDDTQIITLQVVNMEEQPINIGELQLVQVPVPVTVPVATTSVEELQGAYENEVSKEGLAESEPMICHTLPLPEGFQVVKVGANGEVETLEQGELPPQEDPSWQKDPDYQPPAKKTKKTKKSKLRYTEEGKDVDVSVYDFEEEQQEGLLSEVNAEKVVGNMKPPKPTKIKKKGVKKTFQCELCSYTCPRRSNLDRHMKSHTDERPHKCHLCGRAFRTVTLLRNHLNTHTGTRPHKCPDCDMAFVTSGELVRHRRYKHTHEKPFKCSMCDYASVEVSKLKRHIRSHTGERPFQCSLCSYASRDTYKLKRHMRTHSGEKPYECYICHARFTQSGTMKMHILQKHTENVAKFHCPHCDTVIARKSDLGVHLRKQHSYIEQGKKCRYCDAVFHERYALIQHQKSHKNEKRFKCDQCDYACRQERHMIMHKRTHTGEKPYACSHCDKTFRQKQLLDMHFKRYHDPNFVPAAFVCSKCGKTFTRRNTMARHADNCAGPDGVEGENGGETKKSKRGRKRKMRSKKEDSSDSENAEPDLDDNEDEEEPAVEIEPEPEPQPVTPAPPPAKKRRGRPPGRTNQPKQNQPTAIIQVEDQNTGAIENIIVEVKKEPDAEPAEGEEEEAQPAATDAPNGDLTPEMILSMMDR

Molecule | binding [1] | binding [2]
CHD6 (from UniProt Q8TD26 1-2715) | binds | binds weakly
